The list shows a part of the results. Shown are side measurements of this screen, not its main read-out; they come without a call. Most of these compounds were active or inconclusive in the main read-out, so they are no random draw. Words in brackets tell the shape of the fitted curve; partial curves, single points and poor fits give uncertain potencies.
Test: qHTS Assay for Modulators of Lamin A Splicing
Details: HeLa LMNA splicing GFP/RFP minigene ratio, 48 h
How it was run: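 Read-out is the ratio of GFP to DsRed2 object intensity, acquired by 488 nm laser-scanning cytometry on HeLa lamin A-EGFP minigene reporter cells. Compound incubation 48 hrs at 37 °C in Opti-MEM with 2% FBS; DMSO 0.5% final.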

[1] = measured here: RFP viability control channel
[2] = measured here: GFP splicing reporter channel

| SMILES | AC50 [1] | AC50 [2] |
| --- | --- | --- |
| Cc1ccc(/C=C/c2onc(C)c2S(=O)(=O)N2CCC(C(=O)N3CCN(c4ccccc4F)CC3)CC2)cc1 | 1.58 µM [falling, full curve] |  |
| CC(Oc1ncnc2ccccc12)C(=O)Nc1cccc(S(=O)(=O)N2CCOCC2)c1 (configuration not stated) | 17.8 µM [rising, single point] | 22.4 µM [rising, single point] |
| Cc1ccccc1Cc1c(C)nc2c(C(=O)NCc3ccco3)cnn2c1C | 5.62 µM [falling, single point] |  |
| COC(=O)c1ccccc1NC(=O)CSc1nc2ccccc2c(=O)[nH]1 | 15.8 µM [rising, single point] |  |
| CCOc1ccccc1CN1CCc2nc(Nc3ccc4c(c3)OCCO4)ncc2C1 |  | 14.1 µM [falling, single point] |
| COc1ccc(OC)c(NC(=O)CSc2nnc(CNc3ccc(F)cc3)o2)c1 | 3.55 µM [rising, partial curve, poor fit] |  |
| COc1ccc(-c2noc(CCC(=O)Nc3cccnc3)n2)cc1OC | 14.1 µM [rising, partial curve] | 15.8 µM [rising, partial curve] |
| Cc1ccc(-c2cc(NC(=O)CCl)n(-c3ccccc3)n2)cc1 | 0.282 µM [rising, partial curve, poor fit] | 35.5 µM [falling, single point] |
| Cc1ccc(NC(=O)Cn2cnc3sc(C(=O)NCCN(C)C)c(C)c3c2=O)cc1Cl | 12.6 µM [rising, single point] |  |
| CC(Nc1cccnc1)=C(C#N)C#N | 12.6 µM [rising, partial curve] |  |
| COC(=O)Cc1cc(=O)[nH]c(/N=C(\N)Nc2ccc(C(C)C)cc2)n1 |  | 0.355 µM [rising, full curve, poor fit] |
| O=C(NC(=S)NC1CCCCCC1)c1cncc(Br)c1 | 5.62 µM [rising, partial curve, poor fit] | 14.1 µM [rising, partial curve] |
| Cc1occc1C(=O)NC1CCCCCCC1 | 17.8 µM [rising, single point] |  |
| CC(C)NC(=O)CN(C(=O)CCC(=O)Nc1ccccn1)c1ccc(F)c(Cl)c1 | 39.8 µM [rising, partial curve, poor fit] |  |
| CCC(C)n1c(NC(=O)c2ccccc2)c(C#N)c2nc3ccccc3nc21 (configuration not stated) | 22.4 µM [falling, single point] |  |
| COC(=O)c1cn(NC(=O)Cc2ccc(Cl)c(Cl)c2)c(=O)c2ccccc12 | 20 µM [rising, single point] | 12.6 µM [rising, single point] |
| COc1cc(C2CC(c3cccnc3)=NN2c2ccc(F)cc2)cc(OC)c1OC (configuration not stated) | 31.6 µM [rising, single point] |  |
| Cc1nc(N2CCC3(CC2)OCCO3)c2nnn(Cc3ccccc3F)c2n1 | 11.2 µM [rising, single point] | 10 µM [rising, partial curve] |

Structures from the list above that have an NH in an aromatic ring, in the order listed:

| SMILES | AC50 [1] | AC50 [2] |
| --- | --- | --- |
| COC(=O)c1ccccc1NC(=O)CSc1nc2ccccc2c(=O)[nH]1 | 15.8 µM [rising, single point] |  |
| COC(=O)Cc1cc(=O)[nH]c(/N=C(\N)Nc2ccc(C(C)C)cc2)n1 |  | 0.355 µM [rising, full curve, poor fit] |

Further entries follow.

| SMILES | AC50 [1] | AC50 [2] |
| --- | --- | --- |
| O=C(/C=C/c1cccc([N+](=O)[O-])c1)NCCSCc1ccc(Cl)cc1Cl | 31.6 µM [rising, single point] |  |
| Cc1ccc(-c2cc(-c3n[nH]c(=S)o3)c3ccccc3n2)cc1 | 0.00355 µM [falling, full curve, poor fit] |  |
| Cc1ccc(-c2nnc(CSc3nnc(COc4cccc5ccccc45)n3-c3ccccc3)o2)cc1 | 12.6 µM [rising, partial curve] |  |
| COc1cccc(-c2ccc3ncnc(NCc4cccs4)c3c2)c1 | 22.4 µM [falling, partial curve] | 15.8 µM [falling, partial curve] |
| COc1cccc(OCC(=O)O)c1 | 0.0501 µM [falling, full curve, poor fit] | 0.282 µM [falling, full curve, poor fit] |
| C=CCNc1ncnc2c1ncn2C1OC(CO)C(O)C1O (configuration not stated) | 7.08 µM [falling, partial curve] |  |
| COc1ccc2nc(NC(=O)C(NS(=O)(=O)c3cccc4nsnc34)C(C)C)sc2c1 (configuration not stated) | 22.4 µM [falling, single point] | 35.5 µM [falling, single point] |
| CN(C)/C=N/c1cc(=O)[nH]c(=O)n1C | 4.47 µM [falling, partial curve] | 5.01 µM [falling, partial curve, poor fit] |
| O=C(CN1C(=O)COc2ccc(S(=O)(=O)NC3CCCC3)cc21)Nc1ccc(Cl)cc1 | 35.5 µM [rising, single point] |  |
| O=C(COC(=O)c1cccs1)c1ccccc1 | 4.47 µM [rising, partial curve] |  |
| CC(=O)Nc1ccc(NC2=C(Cl)C(=O)c3ccccc3C2=O)cc1 |  | 14.1 µM [falling, single point] |
| CC1=C(C(=O)OCc2ccccc2)C(c2ccsc2)NC(=O)N1C (configuration not stated) |  | 0.282 µM [falling, full curve] |
| Cc1cc(=O)oc2cc(Nc3ccccc3)ccc12 | 20 µM [rising, partial curve, poor fit] |  |
| COc1cccc(CNC(=O)c2ccc3c(c2)nc2n3CCOC2)c1 |  | 0.0224 µM [rising, partial curve, poor fit] |
| Cc1oc(=O)oc1CN1CCN(c2cc3c(cc2F)c(=O)c(C(=O)O)c2n3C(C)S2)CC1 (configuration not stated) | 12.6 µM [rising, partial curve] | 14.1 µM [rising, partial curve, poor fit] |
| COc1ccccc1NC(=O)CN1C(=O)C2(SCC(=O)N2c2ccc(F)c(F)c2)c2ccccc21 (configuration not stated) | 31.6 µM [falling, partial curve, poor fit] | 8.91 µM [falling, full curve, poor fit] |
| CCN1C(=O)/C(=C/c2nc3ccccc3c(=O)n2-c2ccccc2)c2ccccc21 | 3.16 µM [rising, full curve, poor fit] |  |

— PubChem BioAssay AID1487 (National Center for Advancing Translational Sciences (NCATS), 2009)
